Assay results taken from article PMC4150809.
These are yes or no findings as the source states them, for the method shown. In cells and extracts the contact can be indirect. Some entries that bind do so weakly or less than the wild type. Each block holds one substance with its values, some of them ahead of it.

Amino acid sequences for entries named in this document (tags omitted). Residues count along the entry.
GST fusion protein containing amino acids 154-239 of LYAR (Q9NX58, residues 154-239): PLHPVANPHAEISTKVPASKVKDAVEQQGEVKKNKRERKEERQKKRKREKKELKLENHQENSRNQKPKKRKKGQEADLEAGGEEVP

How the values were obtained:
GST-PRMT5 fusion protein = GST-PRMT5 fusion protein (UniProt O14744); test: pull-down; purified GST-PRMT5 pre-adsorbed to glutathione-sepharose beads, incubated with 35S-labeled in vitro transcribed and translated LYAR; autoradiography after SDS-PAGE; only the target purified
[1] = molecular target: GST fusion protein containing amino acids 154-239 of LYAR (human) (UniProt Q9NX58); test: pull-down; purified GST fusions of LYAR fragments pre-adsorbed to glutathione-sepharose beads, incubated with PRMT5-overexpressing K562 cell lysate; western blot with anti-PRMT5 antibody; only the target purified
[2] = molecular target: LYAR (human homologue of mouse Ly-1 antibody reactive clone) (human (endogenous in K562)) (UniProt Q9NX58); test: co-IP; endogenous proteins from K562 cellular extract, immunoprecipitation with anti-LYAR antibody, western blot

binding (GST-PRMT5 fusion protein): binds
Substance: 35S-labeled in vitro transcribed and translated LYAR (from UniProt Q9NX58 1-379)

binding [1]: binds
Substance: Flag-tagged PRMT5 (from UniProt O14744 1-637) (enzyme)

binding [2]: binds
Substance: PRMT5 (endogenous) (from UniProt O14744 1-637) (enzyme)
